Measurements reported in PubChem BioAssay AID1224830 (NIAID, 2016)
In all, the deposit lists about 18,000 reagents; this is a random part of them. Over the whole deposit, about 2,900 (16%) got an active call. 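Calls are made per well; low scores hint the gene aids the LPS response, high scores that it dampens it.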 Entries without a mark were called inactive. Repeated entries: four replicate wells of each siRNA pool.

- Aim: 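Regulators of TLR4 signalling towards TNF-alpha in macrophage-like cells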 (primary screen)
- System: human THP-1 monocytic leukaemia cells, TNF dual-luciferase reporter clone, PMA-differentiated to macrophage-like cells
- Reagents: siRNA pool against human genes, 50 nM
- Timing: LPS for 4 h, given about 3 days after siRNA transfection
- Treatment: bacterial LPS (TLR4 ligand), 10 ng/ml
- Measured: 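Ratio of firefly to renilla light, scaled to the plate median and expressed as a robust z-score per replicate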
- Reading the numbers: TNF reporter robust z-score: higher = stronger TNF reporter response to LPS
- Active means: 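a well is active when its z-score exceeds 2.8 or falls below -1.5; control wells carry no call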

TNF reporter robust z-score	gene
-0.96	HMGCS1 (3-hydroxy-3-methylglutaryl-CoA synthase 1)
-0.97	HMGCS1 (3-hydroxy-3-methylglutaryl-CoA synthase 1)
-0.55	HMGCS1 (3-hydroxy-3-methylglutaryl-CoA synthase 1)
-0.11	HMGCS1 (3-hydroxy-3-methylglutaryl-CoA synthase 1)
1.04	MEF2A (myocyte enhancer factor 2A)
2.49	MEF2A (myocyte enhancer factor 2A)
3.67 (active)	MEF2A (myocyte enhancer factor 2A)
4.06 (active)	MEF2A (myocyte enhancer factor 2A)
1.15	SGCZ (sarcoglycan zeta)
2.81 (active)	SGCZ (sarcoglycan zeta)
-0.53	SGCZ (sarcoglycan zeta)
1.52	SGCZ (sarcoglycan zeta)
-1.15	EN1 (engrailed homeobox 1)
-1.37	EN1 (engrailed homeobox 1)
-0.9	EN1 (engrailed homeobox 1)
-0.37	EN1 (engrailed homeobox 1)
-1.73 (active)	PIK3CG
0.18	PIK3CG
-0.11	PIK3CG
-0.31	PIK3CG
0.56	ANKRD13B (ankyrin repeat domain 13B)
0.08	ANKRD13B (ankyrin repeat domain 13B)
0.74	ANKRD13B (ankyrin repeat domain 13B)
1.08	ANKRD13B (ankyrin repeat domain 13B)
-0.88	SNCB (synuclein beta)
-0.02	SNCB (synuclein beta)
-0.18	SNCB (synuclein beta)
1.48	SNCB (synuclein beta)
-1.49	WNT3A (Wnt family member 3A)
-1.07	WNT3A (Wnt family member 3A)
-1.01	WNT3A (Wnt family member 3A)
-0.69	WNT3A (Wnt family member 3A)
-0.63	DHX36 (DEAH-box helicase 36)
0.09	DHX36 (DEAH-box helicase 36)
-0.45	DHX36 (DEAH-box helicase 36)
-0.46	DHX36 (DEAH-box helicase 36)
0.93	METTL4 (methyltransferase 4, N6-adenosine)
0.79	METTL4 (methyltransferase 4, N6-adenosine)
-0.89	METTL4 (methyltransferase 4, N6-adenosine)
-0.68	METTL4 (methyltransferase 4, N6-adenosine)
0.12	CCDC150 (coiled-coil domain containing 150)
0.68	CCDC150 (coiled-coil domain containing 150)
-0.85	CCDC150 (coiled-coil domain containing 150)
0.15	CCDC150 (coiled-coil domain containing 150)
7.89 (active)	SUPT3H (SPT3 homolog, SAGA and STAGA complex component)
3.2 (active)	SUPT3H (SPT3 homolog, SAGA and STAGA complex component)
1.02	SUPT3H (SPT3 homolog, SAGA and STAGA complex component)
0.55	RBPMS2 (RNA binding protein, mRNA processing factor 2)
0.33	RBPMS2 (RNA binding protein, mRNA processing factor 2)
0.54	RBPMS2 (RNA binding protein, mRNA processing factor 2)
0.1	RBPMS2 (RNA binding protein, mRNA processing factor 2)
0.68	TRMT13 (tRNA methyltransferase 13)
0.46	TRMT13 (tRNA methyltransferase 13)
0.29	TRMT13 (tRNA methyltransferase 13)
-0.24	TRMT13 (tRNA methyltransferase 13)
-0.1	FGF18 (fibroblast growth factor 18)
2.17	FGF18 (fibroblast growth factor 18)
1.77	FGF18 (fibroblast growth factor 18)
1.57	FGF18 (fibroblast growth factor 18)
1.15	EPB41L1 (erythrocyte membrane protein band 4.1 like 1)
-0.03	EPB41L1 (erythrocyte membrane protein band 4.1 like 1)
0.24	EPB41L1 (erythrocyte membrane protein band 4.1 like 1)
0.36	EPB41L1 (erythrocyte membrane protein band 4.1 like 1)
0.07	HJURP (Holliday junction recognition protein)
0.14	HJURP (Holliday junction recognition protein)
-0.58	HJURP (Holliday junction recognition protein)
-0.05	HJURP (Holliday junction recognition protein)
4.93 (active)	ALG10B (ALG10 alpha-1,2-glucosyltransferase B)
1.21	ALG10B (ALG10 alpha-1,2-glucosyltransferase B)
3.57 (active)	ALG10B (ALG10 alpha-1,2-glucosyltransferase B)
2.63	ALG10B (ALG10 alpha-1,2-glucosyltransferase B)
-0.49	CUL7 (cullin 7)
-0.56	CUL7 (cullin 7)
1.84	CUL7 (cullin 7)
0.05	CUL7 (cullin 7)
-0.25	CHODL (chondrolectin)
-0.2	CHODL (chondrolectin)
0.15	CHODL (chondrolectin)
-0.16	CHODL (chondrolectin)
0.7	AGAP7P
2.04	AGAP7P
1.68	AGAP7P
2.66	AGAP7P
0.41	CLIP3 (CAP-Gly domain containing linker protein 3)
-0.01	CLIP3 (CAP-Gly domain containing linker protein 3)
0.45	CLIP3 (CAP-Gly domain containing linker protein 3)
1.07	CLIP3 (CAP-Gly domain containing linker protein 3)
-0.99	CNEP1R1 (CTD nuclear envelope phosphatase 1 regulatory subunit 1)
-1.33	CNEP1R1 (CTD nuclear envelope phosphatase 1 regulatory subunit 1)
-0.22	CNEP1R1 (CTD nuclear envelope phosphatase 1 regulatory subunit 1)
-0.83	CNEP1R1 (CTD nuclear envelope phosphatase 1 regulatory subunit 1)
2.24	DOCK7 (dedicator of cytokinesis 7)
3.21 (active)	DOCK7 (dedicator of cytokinesis 7)
-0.58	DOCK7 (dedicator of cytokinesis 7)
0.25	DOCK7 (dedicator of cytokinesis 7)
-0.13	CHST7 (carbohydrate sulfotransferase 7)
1.07	CHST7 (carbohydrate sulfotransferase 7)
1.76	CHST7 (carbohydrate sulfotransferase 7)
1.65	CHST7 (carbohydrate sulfotransferase 7)
-0.42	MACROD1 (mono-ADP ribosylhydrolase 1)
-0.4	MACROD1 (mono-ADP ribosylhydrolase 1)
0.26	MACROD1 (mono-ADP ribosylhydrolase 1)
0.83	MACROD1 (mono-ADP ribosylhydrolase 1)
-0.18	PAX7 (paired box 7)
0	PAX7 (paired box 7)
-0.22	PAX7 (paired box 7)
-0.09	PAX7 (paired box 7)
0.04	HNRNPH3 (heterogeneous nuclear ribonucleoprotein H3)
1.97	HNRNPH3 (heterogeneous nuclear ribonucleoprotein H3)
2.32	HNRNPH3 (heterogeneous nuclear ribonucleoprotein H3)
2.83 (active)	HNRNPH3 (heterogeneous nuclear ribonucleoprotein H3)
0.22	GABRE (gamma-aminobutyric acid type A receptor subunit epsilon)
-0.76	GABRE (gamma-aminobutyric acid type A receptor subunit epsilon)
-1.5	GABRE (gamma-aminobutyric acid type A receptor subunit epsilon)
-0.92	GABRE (gamma-aminobutyric acid type A receptor subunit epsilon)
0.16	RDH11 (retinol dehydrogenase 11)
-0.33	RDH11 (retinol dehydrogenase 11)
0.35	RDH11 (retinol dehydrogenase 11)
-0.15	RDH11 (retinol dehydrogenase 11)
-2.2 (active)	MEX3D (mex-3 RNA binding family member D)
-1.92 (active)	MEX3D (mex-3 RNA binding family member D)
-1.32	MEX3D (mex-3 RNA binding family member D)
-2.08 (active)	MEX3D (mex-3 RNA binding family member D)
1.67	PML (PML nuclear body scaffold)
4.29 (active)	PML (PML nuclear body scaffold)
1.44	PML (PML nuclear body scaffold)
3.42 (active)	PML (PML nuclear body scaffold)
2.01	PLEKHA4 (pleckstrin homology domain containing A4)
5.03 (active)	PLEKHA4 (pleckstrin homology domain containing A4)
4.84 (active)	PLEKHA4 (pleckstrin homology domain containing A4)
1.92	PLEKHA4 (pleckstrin homology domain containing A4)
-0.8	PPIP5K2 (diphosphoinositol pentakisphosphate kinase 2)
-0.13	PPIP5K2 (diphosphoinositol pentakisphosphate kinase 2)
-0.24	PPIP5K2 (diphosphoinositol pentakisphosphate kinase 2)
0.21	PPIP5K2 (diphosphoinositol pentakisphosphate kinase 2)
-0.35	RASGRP4 (RAS guanyl releasing protein 4)
0.15	RASGRP4 (RAS guanyl releasing protein 4)
-0.29	RASGRP4 (RAS guanyl releasing protein 4)
-0.2	RASGRP4 (RAS guanyl releasing protein 4)
-0.06	SMCP (sperm mitochondria associated cysteine rich protein)
0.26	SMCP (sperm mitochondria associated cysteine rich protein)
-0.08	SMCP (sperm mitochondria associated cysteine rich protein)
0.17	SMCP (sperm mitochondria associated cysteine rich protein)

Reprinted from above, 16 entries:
TNF reporter robust z-score	gene
1.52	SGCZ (sarcoglycan zeta)
-1.15	EN1 (engrailed homeobox 1)
-1.37	EN1 (engrailed homeobox 1)
-0.9	EN1 (engrailed homeobox 1)
-0.37	EN1 (engrailed homeobox 1)
-1.73 (active)	PIK3CG
0.18	PIK3CG
-0.11	PIK3CG
-0.31	PIK3CG
0.56	ANKRD13B (ankyrin repeat domain 13B)
0.08	ANKRD13B (ankyrin repeat domain 13B)
0.74	ANKRD13B (ankyrin repeat domain 13B)
1.08	ANKRD13B (ankyrin repeat domain 13B)
-0.88	SNCB (synuclein beta)
-0.02	SNCB (synuclein beta)
-0.18	SNCB (synuclein beta)
